Amino acid sequences for entries named in this document (tags omitted).
UniProt Q14258: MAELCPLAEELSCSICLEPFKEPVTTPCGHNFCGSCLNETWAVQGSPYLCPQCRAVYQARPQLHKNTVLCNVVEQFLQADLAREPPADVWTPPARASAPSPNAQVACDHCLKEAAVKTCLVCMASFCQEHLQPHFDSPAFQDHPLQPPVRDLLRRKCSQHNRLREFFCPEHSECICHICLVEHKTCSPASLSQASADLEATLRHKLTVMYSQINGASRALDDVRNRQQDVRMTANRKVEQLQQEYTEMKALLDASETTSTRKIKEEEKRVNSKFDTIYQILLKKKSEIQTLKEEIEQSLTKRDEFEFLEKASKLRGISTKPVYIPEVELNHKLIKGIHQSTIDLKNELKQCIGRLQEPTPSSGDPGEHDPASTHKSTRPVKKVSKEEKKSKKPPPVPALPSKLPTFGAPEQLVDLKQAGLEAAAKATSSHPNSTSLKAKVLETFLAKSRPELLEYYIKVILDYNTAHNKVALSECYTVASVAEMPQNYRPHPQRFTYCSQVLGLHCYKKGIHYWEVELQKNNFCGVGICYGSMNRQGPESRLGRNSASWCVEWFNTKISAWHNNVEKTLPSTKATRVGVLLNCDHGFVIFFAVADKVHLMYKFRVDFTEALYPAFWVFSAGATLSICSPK
UniProt Q14145: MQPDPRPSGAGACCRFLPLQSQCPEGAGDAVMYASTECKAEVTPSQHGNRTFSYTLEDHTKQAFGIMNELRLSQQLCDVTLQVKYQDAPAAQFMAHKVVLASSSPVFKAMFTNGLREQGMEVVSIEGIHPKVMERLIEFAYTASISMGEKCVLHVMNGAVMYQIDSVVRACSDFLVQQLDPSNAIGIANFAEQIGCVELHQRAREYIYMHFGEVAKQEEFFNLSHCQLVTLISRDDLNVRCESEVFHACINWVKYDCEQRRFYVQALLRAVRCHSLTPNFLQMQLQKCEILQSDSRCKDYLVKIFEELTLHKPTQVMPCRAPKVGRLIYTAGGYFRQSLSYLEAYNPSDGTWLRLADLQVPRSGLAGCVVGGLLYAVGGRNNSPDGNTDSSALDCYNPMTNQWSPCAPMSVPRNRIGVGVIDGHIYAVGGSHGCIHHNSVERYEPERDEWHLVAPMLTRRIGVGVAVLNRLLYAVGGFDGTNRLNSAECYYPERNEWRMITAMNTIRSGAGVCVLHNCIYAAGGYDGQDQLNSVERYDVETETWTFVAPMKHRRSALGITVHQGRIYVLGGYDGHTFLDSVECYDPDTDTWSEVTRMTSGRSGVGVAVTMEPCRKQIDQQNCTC

In paper PMC6969153:

Molecular target: TRIM25 (bait of the co-immunoprecipitation analysed by mass spectrometry) (human) (UniProt Q14258)
Test: affinity purification with mass spectrometry; co-immunoprecipitation of TRIM25 and liquid chromatography-tandem mass spectrometry; cells not given

binding: binds
Substance: Keap1 (identified by mass spectrometry in the TRIM25 co-immunoprecipitate) (from UniProt Q14145 1-624)

Results are given in words; binding and its absence hold for the method and conditions named. Binding seen in cells or lysates may run through a third protein. A yes stands for co-enrichment or nearness to the bait. Other partners may have been found.
